Measured values taken from patent US10714208B2, “Computer systems for treating diseases” (Biotempus Limited, priority 2009, dated 2020).
At least one compound was matched to its structure with a doubt left.

Test system: metastatic melanoma
Test: Pilot clinical study: temozolomide chemotherapy timed relative to the CRP oscillation cycle
Assay type: in vivo, human
Settings: two patients treated in the pre-peak section of the CRP cycle
Method: A pilot clinical study was conducted on 12 patients with metastatic melanoma (median age 61; 4 female; 7 with M1c disease) at The Mayo Clinic, Rochester, Minn., USA headed by Dr Svetomir Markovic. Serial CRP measurements were taken every 2-3 days for 2 weeks. The CRP oscillation cycle was identified by analysis of the raw data without any computer aided modelling, and chemotherapy with temozolomide (200 mg/m2 for 5 days, every 28 days) was initiated. Patients were evaluated for clinical and immune response endpoints every 8 weeks until progression.

Cn1nnc2c(C(N)=O)ncn2c1=O [temozolomide]
clinical response: 1 PR, 1 CR
